Source: article PMC8390644
These are yes or no findings as the source states them, for the method shown. Binding seen in cells or lysates may run through a third protein. Some results given as binding are weak or reduced against the parent protein; the word gives no strength.

Protein sequences, listed by entry. Tags and fused reporters are not part of them.
UniProt P51531: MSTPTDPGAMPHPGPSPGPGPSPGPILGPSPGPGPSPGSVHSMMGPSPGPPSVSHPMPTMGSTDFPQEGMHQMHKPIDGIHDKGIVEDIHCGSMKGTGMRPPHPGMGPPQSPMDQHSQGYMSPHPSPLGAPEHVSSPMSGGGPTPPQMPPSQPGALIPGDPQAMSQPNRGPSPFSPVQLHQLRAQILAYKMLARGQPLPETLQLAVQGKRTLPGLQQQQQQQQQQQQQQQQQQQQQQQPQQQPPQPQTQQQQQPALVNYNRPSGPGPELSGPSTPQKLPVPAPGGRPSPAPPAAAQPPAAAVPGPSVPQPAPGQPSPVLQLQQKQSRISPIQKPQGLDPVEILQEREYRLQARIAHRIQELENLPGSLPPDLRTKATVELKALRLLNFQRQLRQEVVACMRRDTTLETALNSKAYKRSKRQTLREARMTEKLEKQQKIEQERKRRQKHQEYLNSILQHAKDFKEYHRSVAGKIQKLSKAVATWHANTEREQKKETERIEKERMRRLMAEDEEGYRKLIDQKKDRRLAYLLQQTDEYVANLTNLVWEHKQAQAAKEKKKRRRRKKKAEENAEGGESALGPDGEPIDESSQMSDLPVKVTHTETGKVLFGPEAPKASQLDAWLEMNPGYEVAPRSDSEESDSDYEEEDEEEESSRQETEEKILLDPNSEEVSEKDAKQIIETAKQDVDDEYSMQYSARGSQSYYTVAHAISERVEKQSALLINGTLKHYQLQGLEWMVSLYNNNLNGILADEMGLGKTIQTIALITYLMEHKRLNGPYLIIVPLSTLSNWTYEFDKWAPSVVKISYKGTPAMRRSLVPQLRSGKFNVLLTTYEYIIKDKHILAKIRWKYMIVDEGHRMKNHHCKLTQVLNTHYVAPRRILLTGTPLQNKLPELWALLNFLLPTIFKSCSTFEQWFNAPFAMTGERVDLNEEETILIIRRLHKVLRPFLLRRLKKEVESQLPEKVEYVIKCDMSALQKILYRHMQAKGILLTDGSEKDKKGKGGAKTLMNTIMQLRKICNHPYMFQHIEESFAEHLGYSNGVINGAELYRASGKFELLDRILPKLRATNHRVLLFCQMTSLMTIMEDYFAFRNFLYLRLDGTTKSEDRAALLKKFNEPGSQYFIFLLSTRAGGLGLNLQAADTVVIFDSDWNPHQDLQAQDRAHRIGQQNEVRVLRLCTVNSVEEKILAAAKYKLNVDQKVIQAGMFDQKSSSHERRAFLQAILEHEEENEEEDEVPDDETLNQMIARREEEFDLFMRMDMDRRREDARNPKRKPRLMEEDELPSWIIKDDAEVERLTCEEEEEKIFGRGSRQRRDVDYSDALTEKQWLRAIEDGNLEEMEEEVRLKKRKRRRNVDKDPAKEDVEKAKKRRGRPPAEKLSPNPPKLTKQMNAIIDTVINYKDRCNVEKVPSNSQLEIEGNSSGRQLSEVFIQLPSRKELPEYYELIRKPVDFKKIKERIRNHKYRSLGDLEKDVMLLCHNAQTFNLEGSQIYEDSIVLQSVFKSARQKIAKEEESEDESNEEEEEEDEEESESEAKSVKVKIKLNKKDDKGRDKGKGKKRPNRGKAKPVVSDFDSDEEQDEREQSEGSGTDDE
UniProt P51532: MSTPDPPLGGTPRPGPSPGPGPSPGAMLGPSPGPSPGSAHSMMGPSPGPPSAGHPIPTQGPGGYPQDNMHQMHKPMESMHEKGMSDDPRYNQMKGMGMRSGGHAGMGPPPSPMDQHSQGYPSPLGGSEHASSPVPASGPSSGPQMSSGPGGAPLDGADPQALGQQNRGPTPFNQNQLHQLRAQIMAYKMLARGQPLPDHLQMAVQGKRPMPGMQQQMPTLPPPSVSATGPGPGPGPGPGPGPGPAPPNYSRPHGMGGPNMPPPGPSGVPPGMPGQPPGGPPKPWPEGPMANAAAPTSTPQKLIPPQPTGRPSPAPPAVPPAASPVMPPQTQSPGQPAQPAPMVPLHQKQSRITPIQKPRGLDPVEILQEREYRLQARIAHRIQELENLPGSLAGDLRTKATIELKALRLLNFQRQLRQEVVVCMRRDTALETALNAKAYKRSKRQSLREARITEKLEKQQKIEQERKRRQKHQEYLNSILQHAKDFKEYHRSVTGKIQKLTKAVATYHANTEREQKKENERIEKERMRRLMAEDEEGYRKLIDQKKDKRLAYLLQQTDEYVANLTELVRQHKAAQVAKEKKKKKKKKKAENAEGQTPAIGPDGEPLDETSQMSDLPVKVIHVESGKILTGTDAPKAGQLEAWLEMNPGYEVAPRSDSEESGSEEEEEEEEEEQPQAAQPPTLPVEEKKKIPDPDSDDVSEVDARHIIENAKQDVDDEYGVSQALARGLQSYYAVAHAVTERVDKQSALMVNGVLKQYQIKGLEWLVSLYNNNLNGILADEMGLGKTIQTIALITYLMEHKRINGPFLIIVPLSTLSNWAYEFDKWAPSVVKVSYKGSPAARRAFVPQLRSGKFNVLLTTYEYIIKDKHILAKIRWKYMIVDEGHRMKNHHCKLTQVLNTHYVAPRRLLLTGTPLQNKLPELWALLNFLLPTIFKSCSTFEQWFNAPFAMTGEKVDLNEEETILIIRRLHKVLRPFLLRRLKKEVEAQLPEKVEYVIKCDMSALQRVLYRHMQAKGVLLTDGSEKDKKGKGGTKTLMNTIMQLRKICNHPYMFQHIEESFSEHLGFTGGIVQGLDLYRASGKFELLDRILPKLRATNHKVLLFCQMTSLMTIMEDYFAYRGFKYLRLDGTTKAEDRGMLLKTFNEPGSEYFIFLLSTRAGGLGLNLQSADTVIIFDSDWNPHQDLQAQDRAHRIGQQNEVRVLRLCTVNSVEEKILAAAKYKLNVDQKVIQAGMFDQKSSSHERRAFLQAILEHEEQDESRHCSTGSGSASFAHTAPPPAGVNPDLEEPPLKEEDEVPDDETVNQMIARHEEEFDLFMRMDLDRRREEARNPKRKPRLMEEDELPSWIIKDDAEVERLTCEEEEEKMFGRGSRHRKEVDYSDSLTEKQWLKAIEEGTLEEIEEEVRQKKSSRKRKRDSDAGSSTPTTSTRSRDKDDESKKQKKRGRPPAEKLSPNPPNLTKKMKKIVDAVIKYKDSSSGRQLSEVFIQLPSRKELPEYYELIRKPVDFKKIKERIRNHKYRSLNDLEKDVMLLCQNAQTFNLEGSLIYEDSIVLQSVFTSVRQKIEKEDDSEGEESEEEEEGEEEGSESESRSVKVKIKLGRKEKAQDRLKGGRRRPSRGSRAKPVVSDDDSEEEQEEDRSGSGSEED
UniProt O96019: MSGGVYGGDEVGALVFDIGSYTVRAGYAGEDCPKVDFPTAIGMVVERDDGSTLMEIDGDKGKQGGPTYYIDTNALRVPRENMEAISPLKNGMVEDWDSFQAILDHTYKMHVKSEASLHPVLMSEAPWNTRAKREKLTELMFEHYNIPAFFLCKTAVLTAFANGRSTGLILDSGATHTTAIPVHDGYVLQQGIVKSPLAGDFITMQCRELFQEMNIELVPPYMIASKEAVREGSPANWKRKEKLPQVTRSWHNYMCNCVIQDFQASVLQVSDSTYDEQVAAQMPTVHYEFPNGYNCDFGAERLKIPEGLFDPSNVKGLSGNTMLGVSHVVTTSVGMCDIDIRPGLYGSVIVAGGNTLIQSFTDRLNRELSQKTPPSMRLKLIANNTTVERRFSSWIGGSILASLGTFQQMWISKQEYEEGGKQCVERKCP
UniProt Q01860: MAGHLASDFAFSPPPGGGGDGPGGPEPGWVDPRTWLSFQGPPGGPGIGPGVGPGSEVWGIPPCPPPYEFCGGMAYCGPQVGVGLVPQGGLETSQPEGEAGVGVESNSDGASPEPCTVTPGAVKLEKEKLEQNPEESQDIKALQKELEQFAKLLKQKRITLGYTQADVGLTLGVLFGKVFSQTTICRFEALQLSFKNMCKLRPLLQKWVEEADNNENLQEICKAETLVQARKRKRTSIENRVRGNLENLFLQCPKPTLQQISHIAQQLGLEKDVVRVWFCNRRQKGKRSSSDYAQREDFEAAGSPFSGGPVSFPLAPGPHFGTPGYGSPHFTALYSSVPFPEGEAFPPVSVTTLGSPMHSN
UniProt Q02880: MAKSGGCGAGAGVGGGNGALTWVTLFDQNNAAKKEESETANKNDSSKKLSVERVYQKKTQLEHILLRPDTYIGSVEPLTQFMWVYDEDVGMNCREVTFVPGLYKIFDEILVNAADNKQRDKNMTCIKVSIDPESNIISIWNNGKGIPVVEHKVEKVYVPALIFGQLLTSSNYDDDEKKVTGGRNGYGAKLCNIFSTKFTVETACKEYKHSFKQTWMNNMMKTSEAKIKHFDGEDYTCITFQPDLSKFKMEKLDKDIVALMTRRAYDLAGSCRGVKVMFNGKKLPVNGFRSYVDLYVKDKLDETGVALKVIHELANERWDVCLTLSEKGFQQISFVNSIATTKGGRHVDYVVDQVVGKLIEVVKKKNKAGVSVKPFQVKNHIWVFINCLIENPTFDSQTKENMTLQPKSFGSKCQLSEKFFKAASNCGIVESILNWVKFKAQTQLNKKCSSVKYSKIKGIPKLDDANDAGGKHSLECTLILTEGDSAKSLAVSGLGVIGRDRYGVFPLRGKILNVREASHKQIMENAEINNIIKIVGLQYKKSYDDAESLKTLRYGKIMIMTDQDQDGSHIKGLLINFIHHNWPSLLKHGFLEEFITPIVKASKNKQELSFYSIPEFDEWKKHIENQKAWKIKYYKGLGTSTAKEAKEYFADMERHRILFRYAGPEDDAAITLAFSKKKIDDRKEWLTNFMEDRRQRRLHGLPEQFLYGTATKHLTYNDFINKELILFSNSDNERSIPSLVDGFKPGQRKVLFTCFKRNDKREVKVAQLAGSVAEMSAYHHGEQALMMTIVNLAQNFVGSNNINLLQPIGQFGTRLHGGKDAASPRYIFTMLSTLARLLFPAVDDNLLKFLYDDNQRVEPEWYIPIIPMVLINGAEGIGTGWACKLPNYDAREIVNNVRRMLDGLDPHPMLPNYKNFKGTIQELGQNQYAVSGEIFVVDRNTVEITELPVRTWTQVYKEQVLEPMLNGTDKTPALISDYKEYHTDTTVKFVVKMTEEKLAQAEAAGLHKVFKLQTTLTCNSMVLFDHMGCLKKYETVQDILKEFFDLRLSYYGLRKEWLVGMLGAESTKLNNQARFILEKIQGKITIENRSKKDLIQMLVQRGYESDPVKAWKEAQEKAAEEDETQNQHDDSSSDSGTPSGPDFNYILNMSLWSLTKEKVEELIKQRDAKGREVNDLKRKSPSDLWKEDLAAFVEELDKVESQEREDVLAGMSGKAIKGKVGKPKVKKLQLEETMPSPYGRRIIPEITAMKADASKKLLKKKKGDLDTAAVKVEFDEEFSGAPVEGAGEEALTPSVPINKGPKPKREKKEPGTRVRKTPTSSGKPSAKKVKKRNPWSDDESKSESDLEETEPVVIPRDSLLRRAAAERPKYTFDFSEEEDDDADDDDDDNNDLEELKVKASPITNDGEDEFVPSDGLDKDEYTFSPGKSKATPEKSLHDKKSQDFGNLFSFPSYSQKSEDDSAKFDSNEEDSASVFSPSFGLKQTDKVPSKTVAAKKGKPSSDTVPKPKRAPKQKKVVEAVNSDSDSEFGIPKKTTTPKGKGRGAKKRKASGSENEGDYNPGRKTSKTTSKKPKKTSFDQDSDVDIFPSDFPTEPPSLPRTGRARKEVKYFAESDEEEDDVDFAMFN

How the values were obtained:
[1] = molecular target: BRM (SMARCA2) (human (endogenous in hESCs)) (UniProt P51531); test: co-IP; high-salt (more stringent) condition: proteins extracted with buffer C (420 mM NaCl), antibody overnight, beads washed four times with buffer C; naïve hESCs, endogenous proteins
[2] = molecular target: BRM (SMARCA2) (human (endogenous in hESCs)) (UniProt P51531); test: co-IP; regular condition: same protocol as the OCT4 antibody IP-MS; nuclear extract of WIBR2 and WIBR3 hESCs in primed and naïve (4i/L/A or 5i/L/A) conditions; IP with OCT4, BRG1 or BRM antibody against IgG control, western blot of endogenous proteins
[3] = molecular target: BRG1 (SMARCA4) (human (endogenous in hESCs)) (UniProt P51532); test: as above

binding [1] | binding [2] | binding [3] | Substance
binds |  |  | BAF53A (from UniProt O96019 1-429)
 | binds | binds | OCT4 (from UniProt Q01860 1-360)
 |  | binds | SNF2L (SMARCA1) (from UniProt P28370 1-1042)
 |  | binds | TOP2B (from UniProt Q02880 1-1626)
